According to patent publication US12576099B2, “Ribose-modified cap analog and use thereof” (Beijing Youcare Kechuang Pharmaceutical Technology Co., Ltd., priority 2024, dated 2026):
At least one read-out could not be matched to a standard name with certainty.

Test system: HEK293T cells
Test: Translation efficiency of different capped luciferase mRNAs
Assay type: cell-based
Details: 0.5 μg mRNA per well, 24 hours, proportional to translation efficiency
Procedure: • (1) HEK293T cells were cultured in DMEM medium containing 10% FBS and penicillin/streptomycin at 37° C. with 5% CO2. • (2)Cells in the culture dish were digested and counted, then spread in a 96-well plate at 10,000 cells per well, and cultured overnight until the cells adhered to the wall. • (3) When the cell density reached approximately 80%, transfection was performed by adding 0.5 μg of mRNA sample and Lipofectamine MessengerMAX Transfection Reagent (Invitrogen) per well according to the manufacturer's instructions. • (4) After the transfected cells were cultured at 37° C. with 5% CO2 for 24 hours, the growth medium was removed from the cells to be tested, and the cells were rinsed with PBS. After centrifugation to remove PBS, 50 μL of 1× lysis buffer was added. The cells and all liquid were transferred to a microcentrifuge tube and centrifuged. • (5) 20 μL of sample was taken and added to 100 μL of Dual-Lumi™ II Luciferase Assay Reagent pre-equilibrated to room temperature, and mixed appropriately. • (6) The mixture was incubated at room temperature (approximately 25° C.) for 5 minutes to stabilize the luminescence signal. Chemiluminescence was detected using a multifunctional microplate reader with a function for detecting chemiluminescence, and the data were recorded.
The relative fluorescence intensity is proportional to the translation efficiency of mRNA.

Compound: COC1[C@H](n2cnc3c(N)ncnc32)O[C@H](COP(=O)(O)OP(=O)(O)OP(=O)(O)OC[C@@]23COC([C@H]([n+]4cn(C)c5c(=O)[nH]c(N)nc54)O2)[C@H]3O)[C@H]1OP(=O)(O)OCC1OC(n2cnc3c(=O)[nH]c(N)nc32)C(O)C1O (some centres unmarked) [Compound 14, reference compound]
- Relative fluorescence intensity: 1.12
- Relative fluorescence intensity (listed as compound 14): 1.13
